# Test results published in the supplement of paper PMC9177965.
# The entries are a selection whose mix differs from that of the whole data set.
# Test system: HT29 RNF43 G659fs (RNF43 659mut, CRISPR-edited)
# Test: cell viability activity relative to DMSO (negative = inhibition); higher = more viable cells (less growth inhibition)
# Details: 5 µM; 96 h
# Method: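 Broad Repurposing Library primary screen at a single dose of 5 uM. HT29 sg-Ctrl and HT29 RNF43 G659fs CRISPR-edited isogenic cells were seeded at 2500 cells/well in 384-well plates in duplicate and treated for 96 h. Viability was read by CellTiter-Glo and reported as % activity relative to DMSO, with MG132 as the positive control (negative = growth inhibition).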
row,SMILES,cell viability activity [%]
1,COc1cc(N2CCN(C(C)=O)CC2)ccc1Nc1ncc(Cl)c(Nc2ccc(N3CCN(C(C)=O)CC3)cc2OC)n1,-24.3
2,Cc1nc2c(-c3cnc(N)nc3)nc(N3CCOCC3)nc2n1C(C)C,-74
